Data source: PubChem BioAssay AID652259 (Drosophila RNAi Screening Center, 2013)
In all, the deposit lists about 22,000 reagents; this is a random part of those with a known target gene and a result. In the full data, 233 (1.1%) got an active call. 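Light values are raw, unnormalised plate reads; the ratio scores behind the reporter calls were not deposited.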 A plus sign joins genes that one reagent is predicted to hit. The record does not give: the amount of reagent, the time to read-out, the dose of the treatment.

Screen: 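Genome-wide hunt for genes that control Wingless pathway activity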 (primary screen)
Cells: Drosophila clone 8 imaginal disc epithelial cells
Reagents: long dsRNA against Drosophila genes
Conditions: pathway stimulated by co-transfected Wingless expression plasmid
Measurement: 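Firefly luciferase from a tcf-site Wingless reporter, measured alongside co-transfected Renilla luciferase that tracks transfection; pathway stimulated by a Wingless plasmid; the firefly-to-Renilla ratio is not deposited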
Reading the numbers: firefly reporter light: higher = more Wg reporter light, before normalisation; Renilla control light: higher = more transfected or surviving cells
Active means: 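Strong candidates differ from their plate mean by at least two out of four per-plate statistical tests; weak candidates meet just one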
Meaning of the calls: active = candidate regulator (raises or lowers reporter); inactive = not a candidate

predicted target | dsRNA | firefly reporter light, replicate 1 | firefly reporter light, replicate 2 | Renilla control light, replicate 1 | Renilla control light, replicate 2 | Call
CG13511 | DRSC04153 | 2400 | 7296 | 864 | 3181 | inactive
Dbx | DRSC08270 | 8468 | – | 2125 | – | inactive
Dbx | DRSC08271 | 5856 | – | 2643 | – | inactive
Dbx | DRSC08394 | 6296 | – | 2491 | – | inactive
Tbcc | DRSC00223 | 15077 | – | 7945 | – | inactive
CG16868 | DRSC06633 | 8896 | – | 2692 | – | inactive
Cpr30F | DRSC02908 | 12613 | – | 2089 | – | inactive
wwk | DRSC01941 | 3113 | 5124 | 1302 | 3428 | inactive
CG7810 | DRSC03072 | 8832 | – | 4613 | – | inactive
CG8768 | DRSC07259 | 15702 | – | 3124 | – | inactive
Spn75F | DRSC09589 | 2707 | – | 1031 | – | inactive
CG10000 | DRSC14170 | 7637 | – | 2438 | – | inactive
CG14118 | DRSC10122 | 6290 | – | 1856 | – | inactive
Mal-A2 | DRSC07460 | 3046 | 7244 | 1029 | 2792 | inactive
Cep290 | DRSC08359 | 6764 | – | 2981 | – | inactive
chas | DRSC19508 | 13654 | – | 5637 | – | inactive
chas | DRSC19509 | 14336 | – | 7642 | – | inactive
CG42656 | DRSC12472 | 3917 | – | 770 | – | inactive
CG16998 | DRSC10235 | 1573 | 6488 | 1296 | 2907 | inactive
CG4686 | DRSC15622 | 22844 | – | 5604 | – | inactive
CG5767 | DRSC06953 | 7197 | – | 2435 | – | inactive
CG31244 | DRSC21589 | 5.32e5 | 5.15e5 | 2.52e5 | 1.73e5 | inactive
PolH | DRSC11800 | 9972 | – | 4699 | – | inactive
Drip | DRSC07405 | 8194 | – | 2993 | – | inactive
Rpt6 | DRSC20571 | 2225 | 6876 | 598 | 2544 | inactive
CG10959 | DRSC17769 | 4816 | 5977 | 1264 | 1658 | inactive
CG32102 | DRSC22015 | 7.34e5 | 5.21e5 | 2.66e5 | 3.10e5 | inactive
wb | DRSC01375 | 11463 | – | 2587 | – | inactive
wb | DRSC03634 | 1811 | 5584 | 929 | 2151 | inactive
14-3-3zeta | DRSC05028 | 10548 | – | 3184 | – | inactive
CG32023 | DRSC08946 | 5216 | – | 2151 | – | inactive
CG32436 | DRSC11683 | 14640 | – | 4497 | – | inactive
CG32436 | DRSC11796 | 9037 | – | 3169 | – | inactive
CG34008 | DRSC13428 | 2683 | – | 1289 | – | inactive
EMC1 | DRSC15455 | 3779 | – | 851 | – | inactive
CG14715 | DRSC14938 | 6192 | – | 2192 | – | inactive
CG30037 | DRSC07305 | 3625 | – | 1589 | – | inactive
CR11235 | DRSC20480 | 17163 | – | 1000 | – | inactive
Arc1 | DRSC06159 | 11253 | – | 2769 | – | inactive
cav | DRSC15995 | 2419 | 3536 | 1282 | 1434 | inactive
kek5 | DRSC19438 | 17690 | – | 8516 | – | inactive
Arl5 | DRSC10785 | 6577 | – | 2138 | – | inactive
CG17826 | DRSC10289 | 12145 | – | 3300 | – | inactive
CG34161 | DRSC01132 | 25319 | – | 7634 | – | inactive
GAA1 | DRSC18267 | 1341 | 5309 | 790 | 1808 | inactive
atk | DRSC11418 | 3701 | – | 1268 | – | inactive
atk | DRSC11769 | 11008 | – | 3004 | – | inactive
RpS9 | DRSC11273 | 4944 | – | 2112 | – | inactive
CG5116 | DRSC15720 | 3931 | – | 1328 | – | inactive
Dab | DRSC11140 | 8048 | – | 3971 | – | inactive
CG4836 | DRSC15659 | 3074 | 12387 | 1456 | 2752 | inactive
CG4836 | DRSC22066 | 5.83e5 | 5.49e5 | 2.28e5 | 2.77e5 | inactive
Rtnl2 | DRSC12609 | 22434 | – | 6389 | – | inactive
Rtnl2 | DRSC21655 | 6.72e5 | 6.97e5 | 3.40e5 | 2.79e5 | inactive
Chsy | DRSC20175 | 12232 | – | 6338 | – | inactive
Chsy | DRSC20176 | 22674 | 7.59e5 | 9353 | 2.93e5 | inactive
CG10147 | DRSC09706 | 1476 | 5879 | 1076 | 2385 | inactive
CG13360 | DRSC18536 | 3665 | 13011 | 1895 | 4322 | inactive
CG16888 | DRSC02541 | 3104 | 6179 | 976 | 2762 | inactive
CG7384 | DRSC03053 | 10089 | – | 1948 | – | inactive
His4:CG33883 + His4:CG33889 + His4:CG33899 + 20 more | DRSC21268 | 23347 | – | 3488 | – | inactive
Or42b | DRSC04913 | 2611 | 7644 | 923 | 3056 | inactive
CG5644 | DRSC10531 | 1625 | 6209 | 933 | 2364 | inactive
CG1544 | DRSC15036 | 1872 | 4210 | 628 | 1911 | inactive
CG13337 | DRSC06371 | 6165 | – | 2256 | – | inactive
FucT6 | DRSC19848 | 1922 | 5944 | 739 | 2282 | inactive
asp | DRSC16903 | 3344 | 6214 | 1227 | 1819 | inactive
CG9705 | DRSC11094 | 12642 | – | 4492 | – | inactive
Cpr47Eb | DRSC06345 | 6826 | – | 2657 | – | inactive
CCT5 | DRSC07357 | 9339 | – | 2128 | – | inactive
CG16743 | DRSC02514 | 2653 | 8689 | 765 | 2561 | inactive
Polr1C | DRSC02719 | 8981 | – | 4083 | – | inactive
CG13231 | DRSC06351 | 7623 | – | 5315 | – | inactive

11 entries from above, arranged by “firefly reporter light, replicate 1”, high to low.
predicted target | dsRNA | firefly reporter light, replicate 1 | firefly reporter light, replicate 2 | Renilla control light, replicate 1 | Renilla control light, replicate 2 | Call
Rtnl2 | DRSC21655 | 6.72e5 | 6.97e5 | 3.40e5 | 2.79e5 | inactive
His4:CG33883 + His4:CG33889 + His4:CG33899 + 20 more | DRSC21268 | 23347 | – | 3488 | – | inactive
Chsy | DRSC20176 | 22674 | 7.59e5 | 9353 | 2.93e5 | inactive
Rtnl2 | DRSC12609 | 22434 | – | 6389 | – | inactive
Chsy | DRSC20175 | 12232 | – | 6338 | – | inactive
CG7384 | DRSC03053 | 10089 | – | 1948 | – | inactive
CG13360 | DRSC18536 | 3665 | 13011 | 1895 | 4322 | inactive
CG16888 | DRSC02541 | 3104 | 6179 | 976 | 2762 | inactive
Or42b | DRSC04913 | 2611 | 7644 | 923 | 3056 | inactive
CG5644 | DRSC10531 | 1625 | 6209 | 933 | 2364 | inactive
CG10147 | DRSC09706 | 1476 | 5879 | 1076 | 2385 | inactive
